The target in assay [1] is UBXD9-GFP (C-terminally tagged UBXD9) (D. discoideum) (UniProt Q54X06). Description: affinity purification with mass spectrometry; GFP-trap beads, soluble proteins of AX2 cells expressing UBXD9-GFP or GFP-UBXD9 against AX2/GFP; four replicates, fold change > 1.4 and p < 0.05.
Assay [2] has as its target GFP-UBXD9 (N-terminally tagged UBXD9) (D. discoideum). Described as above.

Chains of the proteins cited; added tags and fusions are not shown. Lines headed by an entry give the natural chain unless they say otherwise; changes in a name come on top.
UniProt Q54X06: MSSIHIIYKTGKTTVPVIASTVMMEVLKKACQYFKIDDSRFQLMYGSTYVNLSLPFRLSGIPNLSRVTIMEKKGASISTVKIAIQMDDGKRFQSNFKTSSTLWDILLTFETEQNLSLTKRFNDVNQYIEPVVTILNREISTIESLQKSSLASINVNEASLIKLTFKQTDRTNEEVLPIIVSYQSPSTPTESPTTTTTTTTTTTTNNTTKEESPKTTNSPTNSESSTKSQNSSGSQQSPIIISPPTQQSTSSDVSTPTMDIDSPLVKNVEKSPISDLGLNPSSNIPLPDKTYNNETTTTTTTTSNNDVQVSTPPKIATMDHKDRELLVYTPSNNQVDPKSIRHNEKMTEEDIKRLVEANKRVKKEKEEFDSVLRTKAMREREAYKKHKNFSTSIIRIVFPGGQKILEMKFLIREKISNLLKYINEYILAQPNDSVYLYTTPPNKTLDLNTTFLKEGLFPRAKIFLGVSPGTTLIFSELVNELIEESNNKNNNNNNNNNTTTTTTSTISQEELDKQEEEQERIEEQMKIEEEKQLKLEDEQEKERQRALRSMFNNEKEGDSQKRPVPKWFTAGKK

Drawing on PMC8495200, this text covers binding for six molecules.

These are yes or no findings as the source states them, for the method shown. In cells and extracts the contact can be indirect. A yes stands for co-enrichment or nearness to the bait. Other partners may have been found. Where a sequence is shown, tags or fusion partners need not be part of it.

B1: Probable replication factor C subunit 3 (protein, UniProt Q54BN3 1-347)
chain: MLWIDKYKPTSLDKMDYHNDISINLKNMIKSGDFPHLLVYGPSGAGKKTRILAVLQEIYGPNALKLKIDHRTFKHPTSSKNIQITTISSHYHIEINPGEAGSYDRVVIQTIIKEIAQSPPIDSGSLGAFKIVILNEVDKLSKDAQHALRRTMEKYATFCRLILCCDSTAKVIDPIKSRCLGIRVPAPSQEEIEKVLAKVATAEKFDLPSKLAVNVAKQSGGNLRYALMLLESQKAKQYPFQSTELPLLDWENYISQIVKDCFEEQSPARLSIVRGKLYELLGHCIPPELIFKTLLLEIFKKLDHNMKFEIIHWASYYEHRSQIGSKPIFHLEAFIAKFMSVYKKYNQ
As for B1, the binding entry in assay [1] and in assay [2] was “binds” in each case.

B2: Putative rho GDI 1 (protein, UniProt Q95UQ1 1-197)
chain: MSDNHEEESNVPAYVPGKHVSVDQLKQQDAEDEALKRYKESLLGTGVHAPKDDPRKLVIKEMKIQIEGRPDTIYPLDTKELIKEMKTKPFVLKESCHYKITLTFNIQHDIVSGLKQTNTVYRKGIKVSTEKHMLGSFAPQALAHSVTNPRHGWEEAPSGMLARGSYTAKVVFTDDDNEEHLSVEYAFSIKSDWKSDD
Consider B2, for which the binding result in assay [1] and in assay [2] was “binds” each time.

B3: Hisactophilin-1 (protein, UniProt P13231 1-118)
chain: MGNRAFKSHHGHFLSAEGEAVKTHHGHHDHHTHFHVENHGGKVALKTHCGKYLSIGDHKQVYLSHHLHGDHSLFHLEHHGGKVSIKGHHHHYISADHHGHVSTKEHHDHDTTFEEIII
With B3, the binding entry in assay [1] and in assay [2] was “binds” throughout.

B4: Phosphoenolpyruvate carboxykinase (enzyme, UniProt Q75JD5 1-562)
chain: MNQAVAESINKSLKSSTADYTPKGYHITELESDSIYLDEHFSGNAKIFHNPAVAVLYEQALAFEHGSAITSTGALVTRSGVKTGRSPKDKRIVKEPSSQDDIWWGPVNIAMDDLSFMINRERAIDYLNTQEKIYVIDGYAGWDPKYRIKVRVICARAYHALFMHNMLIRPANREELRNFGEPDYTIYNAGQFPANRYTKGMSSSSSIAIDFARKEMVILGTQYAGEMKKGILTIMMYLMPKMGVLPLHSSCNQARNNGDTTLFFGLSGTGKTTLSADINRELIGDDEHVWTDTGCFNIEGGCYAKCIDLSREKEPEIFDAIKFGAVLENVVYNEYSRKVDYNDVSITENTRCAYPLEHIPNAKFPAIAGHPKNIIMLTCDAFGILPPVSRLDANQVMYHFIQGYTAKVAGTEVGVTEPTATFSSCYGEPFIVWHPTKYAEMLASQLHKHSARAWLINTGWTGGSHGVGSRIKLAYTRAIIDAIHSGELEKIPTTKMDVFGFQVPNSCPGVPSEILMPINGWADKEKYVSTMHKLAKLFIENFKKFQDKASPELVAAGPILPQ
Take B4: the binding result in assay [1] and in assay [2] was “binds” in each case.

B5: Bifunctional purine biosynthesis protein (enzyme, UniProt Q86L14 1-542)
chain: MQALLSVYNKSGIVEFSKILSSKGFNLISTGGTAKSLVDNGLKVQQVSDVTEYPEMLDGRVKTLHPKIHGGLLARPELAHHQADLNKYNIKPISIVVVNLYPFVETVSKESTTLEEAIENIDIGGHTLIRASSKNFQNVLIIVDPSDYKWIGERIQSSTDSTNVLSSITLEERKKLALKAFQHGCSYDAAVSQYLSKVELTNATTIQGVKGTDSASVNVEFPQTFLPLYEKKNDLRYGENPHQKAALYQCPGTGGIANAQLLHGPALSYNNILDGDAALKAVREFDRCACVVIKHTNPCGLSVGVNDSEQAEVYKRAFNGDPKSAYGGILGFNRTLTLETATALKSVFYEVIIAPDYTEDALALLSKKEKLRILRIPEAANQIQFTQPDIRTITGGALLQSPNPIIRGDLAEATKNWKVVTENKPTEQQMKDLLFAWRVSKHVKSNAIVLSKDETIVAIGAGQPNRSQSVDICMKVGGDKVKGSVLASDAFFPFADSIDLAHQGNIACIVQPGGSIRDQEVIDAANKYGIPMVFTGNRNFLH
As to B5, the binding result in assay [1] and in assay [2] was “binds” in each case.

B6: 60S ribosomal protein L36 (protein, UniProt Q55AQ9 1-105)
chain: MSSAATKPVKRSGIIKGFNKGHAVAKRTVTSTFKKQVVTKRVAAIRDVIREISGFSPYERRVSELLKSGLDKRALKVAKKRLGSIQAGKKKRDDIANINRKASAK
For the molecule B6, the binding result in assay [1] and in assay [2] was “binds” each time.
